Measured values published in PubChem BioAssay AID602254 (Broad Institute, 2012).
Fewer than 10 of roughly 1,000 compounds were called active.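 How the source made its calls: active means fitted half-maximal concentration no higher than twice the top valid tested dose, with signal falling; inconclusive means flat curve with 30 to 70% inhibition, or poor fit; inactive means the rest.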 The list shows a part of the results. Entries with a potency or affinity are not part of this list.

What follows are molecules tested against Golgi-associated PDZ and coiled-coil motif-containing protein (Homo sapiens) (UniProt Q9HD26) (assay: CAL PDZ domain peptide-binding inhibitors, dose response, biochemical, fluorescence polarization, untagged CAL PDZ, cherry-pick, set 2 (AID 602254;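 further: 0% = DMSO neutral control and -100% = unlabeled peptide PRC23 positive control; more negative means stronger blocking of peptide binding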)). Conditions: Purified CAL PDZ, TMR peptide fluorescence polarization; at 60 µM (top of the series).
In the case of `Cn1c(=O)oc2cc(S(=O)(=O)N3CCC(C(=O)NCc4ccccc4Cl)CC3)ccc21`, the activity change, negative = inhibition is reported as inactive: -1.41%.
In the case of `CCCCCN1CSC(=S)N(Cc2ccccc2)C1`, the activity change, negative = inhibition is reported as inactive: -0.886%.
`O=C(C1CC(=O)N(c2ccc3c(c2)OCCO3)C1)N1CCN(c2ccccc2)CC1` (stereo unspecified) was tested, and the activity change, negative = inhibition was inactive: 0.502%.
For `COCCNC(=O)c1cc2cc(Br)cc(Br)c2oc1=O`, the activity change, negative = inhibition was inactive: -1.57%.
In the case of `COc1ccc(CNc2ccc(-c3ccccc3OC)nn2)cc1`, the activity change, negative = inhibition is reported as inactive: 7.46%.
In the case of `CCc1ccc(NC(=S)NCc2ccccc2)cc1`, the activity change, negative = inhibition is reported as inactive: 4.25%.
With `COc1ccc(C(CNC(=O)C2COc3ccccc3O2)N2CCCC2)cc1` (stereo unspecified) the activity change, negative = inhibition was inactive: 0.222%.
For `CC(CC(=O)O)CC(=O)Nc1nncs1` (stereo unspecified), the activity change, negative = inhibition was inactive: -2.91%.
In the case of `CC(=O)N1CCc2cc(S(=O)(=O)NCC(=O)NCc3ccc(Cl)cc3)ccc21`, the activity change, negative = inhibition is reported as inactive: -0.918%.
In the case of `O=C(CCN1C(=O)/C(=C/c2cccs2)SC1=S)N1CCCCC1`, the activity change, negative = inhibition is reported as inactive: 2.71%.
`Cc1ccc(N(C)C(=O)C2CCCN2S(=O)(=O)c2cccc3nsnc23)cc1` (stereo unspecified) was tested, and the activity change, negative = inhibition was inactive: 0.114%.
`N#CCC(=O)Nc1ccc(C(=O)OCC(=O)NC(=O)Nc2ccc3c(c2)OCCO3)cc1` was tested, and the activity change, negative = inhibition was inactive: 3.72%.
For `O=C(c1ccc(-c2ccccc2)cc1)N1CCN(c2ccccn2)CC1`, the activity change, negative = inhibition was inactive: 3.69%.
`Cc1cc(C)c(C#N)c(Nc2cccc(C)c2C)n1` was tested, and the activity change, negative = inhibition was inactive: 3.29%.
`CCN(C(=O)c1ccc(NC(=O)Cc2ccccc2)cc1)c1ccccc1` was tested, and the activity change, negative = inhibition was inactive: 1.07%.
In the case of `Cc1nn(CC(=O)NCCc2ccccc2)c(=O)c2cccn12`, the activity change, negative = inhibition is reported as inactive: 2.33%.
In the case of `COc1ccc(CCC(=O)Nc2ncc(C)s2)cc1OC`, the activity change, negative = inhibition is reported as inactive: -1.11%.
With `COc1ccccc1N1CCN(/N=C/c2ccc(O)cc2O)CC1` the activity change, negative = inhibition was inactive: -1.14%.
In the case of `CCC(=O)N1CCc2cc(Br)cc(S(=O)(=O)N3CCCCC3CC)c21` (stereo unspecified), the activity change, negative = inhibition is reported as inactive: -1.65%.
`COc1cc(N)ccc1Cc1ccc(N)cc1OC` was tested, and the activity change, negative = inhibition was inactive: -0.642%.
For `Cc1cccc(-c2ncc(CN3CCCC(CO)(Cc4cccc(Cl)c4)C3)cn2)c1` (stereo unspecified), the activity change, negative = inhibition was inactive: 2.64%.
With `O=C(NCCN1CCOCC1)C(=O)NCC1OCCN1S(=O)(=O)c1ccc(F)cc1` (stereo unspecified) the activity change, negative = inhibition was inactive: 4.18%.
With `O=C(COc1ccc2cc(Br)ccc2c1)N1CCOCC1` the activity change, negative = inhibition was inactive: 0.913%.
`COC(=O)c1ccc(OCC(O)CN2CCc3cc(OC)c(OC)cc3C2c2ccccc2)cc1` (stereo unspecified) was tested, and the activity change, negative = inhibition was inactive: 2.58%.
`NC(=O)c1ccc(NC(=O)COC(=O)C2CCN(S(=O)(=O)c3cccs3)CC2)cc1` was tested, and the activity change, negative = inhibition was inactive: 0.324%.
For `O=C1NC(=O)/C(=C\c2cn(Cc3ccccc3F)c3ccccc23)N1`, the activity change, negative = inhibition was inactive: -1.51%.
